# The list is a part of this screen's results and no random one: it gathers tests that were run many times, whatever their T/C, doses with no T/C, and many T/C values between a quarter and a half above the control. Other doses and runs of a compound stand elsewhere. T/C gives the treated animals as a percentage of the vehicle group. Some doses have a count of surviving animals in place of a T/C: the source holds a T/C of zero for them, seemingly a mark for toxic or unscored doses. Some doses without a T/C left all or most animals alive at the check, yet need not have been tolerated: the source hardly ever lists a survival T/C far under the control, and the zero likely stands for such cases as well. Counts of survivors are from the toxicity check (mostly the fifth day) where no day follows; animals may have died later. Schedule codes are those of the source, taken here to give the interval after Q, in days (D) or hours (H), and the number of doses after X. Some doses were run more than once; the results are listed from low to high. Some schedules carry Z or #; the key to these is not given. For survival time, this PubChem deposit counts one and a half times the control or more as active, and values a quarter to a half above the control carry no call in these data; other NCI protocols may use other cut-offs. Some T/C values carry the count of animals alive at the toxicity check (mostly the fifth day); where none is given, no animal had died by that day.
# Test system: CD2F1 mice, L1210 leukemia ip, survival T/C
# Assay: NCI In Vivo Anticancer Drug Screen. Data for tumor model L1210 Leukemia (intraperitoneal) in CD2F1 (CDF1) mice
# Conditions: higher T/C = longer survival
# Summary of the method: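 Mice carrying a transplanted tumor received test compound or vehicle alone. The value is the measurement in the treated group divided by that in the vehicle-treated control group.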
# [1] = T/C endpoint: mean survival time, dose: 100.0 mg/kg/injection, schedule: Q01DX009 (ip), vehicle: saline with Tween-80
# [2] = T/C endpoint: mean survival time, dose: 200.0 mg/kg/injection, schedule: Q01DX009 (ip), vehicle: saline with Tween-80
# [3] = T/C endpoint: mean survival time, dose: 400.0 mg/kg/injection, schedule: Q01DX009 (ip), vehicle: saline with Tween-80
# [4] = T/C endpoint: mean survival time, dose: 25.0 mg/kg/injection, schedule: Q01DX009 (ip), vehicle: saline
# [5] = T/C endpoint: mean survival time, dose: 50.0 mg/kg/injection, schedule: Q01DX009 (ip), vehicle: saline
# [6] = T/C endpoint: mean survival time, dose: 400.0 mg/kg/injection, schedule: Q04DX003 (ip), vehicle: saline with Tween-80
# [7] = T/C endpoint: mean survival time, dose: 100.0 mg/kg/injection, schedule: Q01DX001 (ip), vehicle: saline with Tween-80
# [8] = T/C endpoint: mean survival time, dose: 100.0 mg/kg/injection, schedule: Q04DX003 (ip), vehicle: saline with Tween-80
# [9] = T/C endpoint: mean survival time, dose: 200.0 mg/kg/injection, schedule: Q04DX003 (ip), vehicle: saline with Tween-80
# [10] = T/C endpoint: mean survival time, dose: 25.0 mg/kg/injection, schedule: Q01DX009 (ip), vehicle: saline with Tween-80
# [11] = T/C endpoint: mean survival time, dose: 20.0 mg/kg/injection, schedule: Q04DX003 (ip), vehicle: saline
smiles,measurement,setting,value
NC(=O)c1c(Br)n(C2OC(CO)C(O)C2O)c2ncnc(N)c12 (configuration not stated),T/C,[1],137 % of control [4 of 6 alive]
same,T/C,[2],135 % of control [5 of 6 alive]
same,survivor count,[3],0 of 6
C=CC(=O)NC(C)(C)CC(C)=O,survivor count,"T/C endpoint: mean survival time, dose: 400.0 mg/kg/injection, schedule: Q01DX009 (ip), vehicle: saline",3 of 6
CN(C)N=Nc1ccc(NC(N)=O)cc1,T/C,"T/C endpoint: mean survival time, dose: 18.75 mg/kg/injection, schedule: Q01DX009 (ip), vehicle: Klucel (hydroxypropylcellulose) (HPC)",145 % of control
same,T/C,[4],127 % of control
same,T/C,[5],148 % of control
same,survivor count,"T/C endpoint: mean survival time, dose: 75.0 mg/kg/injection, schedule: Q01DX009 (ip), vehicle: Klucel (hydroxypropylcellulose) (HPC)",5 of 6
same,survivor count,"T/C endpoint: mean survival time, dose: 150.0 mg/kg/injection, schedule: Q01DX009 (ip), vehicle: Klucel (hydroxypropylcellulose) (HPC)",0 of 6
same,survivor count,"T/C endpoint: mean survival time, dose: 300.0 mg/kg/injection, schedule: Q01DX009 (ip), vehicle: Klucel (hydroxypropylcellulose) (HPC)",0 of 6
CCCCCCCCCCCC(=O)Nc1ccc(C(C)C)cc1,survivor count,[6],4 of 6
O=C1C=C(O)c2ccccc2C1=O.[Ag],survivor count,"T/C endpoint: mean survival time, dose: 50.0 mg/kg/injection, schedule: Q01DX001 (ip), vehicle: saline with Tween-80",0 of 3
same,survivor count,[7],1 of 3
same,survivor count,"T/C endpoint: mean survival time, dose: 200.0 mg/kg/injection, schedule: Q01DX001 (ip), vehicle: saline with Tween-80",0 of 3
same,survivor count,"T/C endpoint: mean survival time, dose: 400.0 mg/kg/injection, schedule: Q01DX001 (ip), vehicle: saline with Tween-80",0 of 3
CO[C@@]12[C@@H]3N[C@@H]3CN1C1=C(C(=O)C(N3CCOCC3)=C(C)C1=O)[C@@H]2COC(N)=O,T/C,"T/C endpoint: mean survival time, dose: 1.5 mg/kg/injection, schedule: Q01DX001 (ip), vehicle: distilled water + Tween-80",135 % of control
same,T/C,"T/C endpoint: mean survival time, dose: 3.0 mg/kg/injection, schedule: Q01DX001 (ip), vehicle: distilled water + Tween-80",137 % of control
same,T/C,"T/C endpoint: mean survival time, dose: 6.0 mg/kg/injection, schedule: Q01DX001 (ip), vehicle: distilled water + Tween-80",125 and 147 % of control
same,T/C,"T/C endpoint: mean survival time, dose: 12.0 mg/kg/injection, schedule: Q01DX001 (ip), vehicle: distilled water + Tween-80",147 % of control
same,survivor count,"T/C endpoint: mean survival time, dose: 24.0 mg/kg/injection, schedule: Q01DX001 (ip), vehicle: distilled water + Tween-80",5 of 6 and 6 of 6
COC1CCC(/C=C(\C#N)C2CCC([N+](=O)[O-])CC2)CC1 (configuration not stated),survivor count,[1],3 of 3 and 6 of 6
same,survivor count,[2],3 of 3
CS(=O)(=O)c1ccncc1,survivor count,"T/C endpoint: mean survival time, dose: 400.0 mg/kg/injection, schedule: Q04DX003 (ip), vehicle: saline sonified",3 of 6
Nc1ccc(N)cc1,survivor count,[8],0 of 6
same,survivor count,[9],0 of 6
same,survivor count,[6],0 of 6
c1ccc(OCC2(N3CCCCC3)CCCC2)cc1,survivor count,"T/C endpoint: mean survival time, dose: 100.0 mg/kg/injection, schedule: Q04DX002 (ip), vehicle: saline with Tween-80",1 of 3
CSc1nc(Cl)c2cc(Cl)[nH]c2n1,survivor count,"T/C endpoint: median survival time, dose: 12.5 mg/kg/injection, schedule: Q01DX005 (ip), vehicle: saline with Tween-80",2 of 6
same,survivor count,"T/C endpoint: median survival time, dose: 25.0 mg/kg/injection, schedule: Q01DX005 (ip), vehicle: saline with Tween-80",0 of 6
same,survivor count,"T/C endpoint: median survival time, dose: 50.0 mg/kg/injection, schedule: Q01DX005 (ip), vehicle: saline with Tween-80",0 of 6
same,survivor count,"T/C endpoint: median survival time, dose: 200.0 mg/kg/injection, schedule: Q01DX005 (ip), vehicle: saline with Tween-80",2 of 6
O=C(CBr)Nc1cc([N+](=O)[O-])ccc1O,survivor count,[10],2 of 3
COc1ccc(CCc2nc(CCCCO)[nH]c2C)cc1OC,survivor count,[2],0 of 6
same,survivor count,[3],0 of 6
CC(C)(C#N)N1CCCCC1,survivor count,"T/C endpoint: mean survival time, dose: 10.0 mg/kg/injection, schedule: Q04DX003 (ip), vehicle: saline",3 of 6
same,survivor count,[11],2 of 6
same,survivor count,[8],0 of 6
same,survivor count,[9],0 of 6
same,survivor count,[6],0 of 6
S=P(N1CCOCC1)(N1CC1)N1CC1,T/C,"T/C endpoint: mean survival time, dose: 10.0 mg/kg/injection, schedule: Q01DX009 (ip), vehicle: saline",132 % of control
same,T/C,"T/C endpoint: mean survival time, dose: 20.0 mg/kg/injection, schedule: Q03DX003 (ip), vehicle: saline",148 % of control
same,T/C,[11],138 % of control
same,survivor count,"T/C endpoint: mean survival time, dose: 50.0 mg/kg/injection, schedule: Q01DX Z (ip), vehicle: carboxymethylcellulose (CMC)",6 of 6
same,survivor count,"T/C endpoint: mean survival time, dose: 100.0 mg/kg/injection, schedule: Q01DX Z (ip), vehicle: carboxymethylcellulose (CMC)",6 of 6
CCC1(C)CCC2=C(CCC3C(C)(C(=O)O)CCCC23C)C1 (configuration not stated),survivor count,[3],3 of 6
c1ccc(CNCc2ccccc2)cc1,survivor count,"T/C endpoint: mean survival time, dose: 400.0 mg/kg/injection, schedule: Q04DX003 (ip), vehicle: Klucel (hydroxypropylcellulose) (HPC)",1 of 6
C#CCOCC1CO1 (configuration not stated),survivor count,"T/C endpoint: mean survival time, dose: 300.0 mg/kg/injection, schedule: Q01DX001 (ip), vehicle: saline",0 of 6
Cc1nc2c(NC(=O)CCl)nn(C)c2nc1C,survivor count,[6],0 of 6
CCOC(=O)C(F)(C(=O)OCC)[N+](=O)[O-],survivor count,"T/C endpoint: mean survival time, dose: 400.0 mg/kg/injection, schedule: Q01DX001 (ip), vehicle: saline",1 of 6
Cc1ccc2c3nc4ccccc4c-3csc2c1,survivor count,"T/C endpoint: mean survival time, dose: 100.0 mg/kg/injection, schedule: Q04DX003 (ip), vehicle: acetone",5 of 6
same,survivor count,"T/C endpoint: mean survival time, dose: 200.0 mg/kg/injection, schedule: Q04DX003 (ip), vehicle: acetone",3 of 6
same,survivor count,"T/C endpoint: mean survival time, dose: 400.0 mg/kg/injection, schedule: Q04DX003 (ip), vehicle: acetone",1 of 6
N#Cc1cccnc1Cl,survivor count,"T/C endpoint: median survival time, dose: 400.0 mg/kg/injection, schedule: Q04DX002 (ip), vehicle: saline with Tween-80",1 of 3
Cc1c(CNc2ccc(C(=O)NC(CC(=O)O)C(=O)O)cc2)ccc2nc(N)nc(N)c12 (configuration not stated),survivor count,"T/C endpoint: mean survival time, dose: 0.78 mg/kg/injection, schedule: Q01DX009 (ip), vehicle: saline",4 of 6
same,survivor count,"T/C endpoint: mean survival time, dose: 1.56 mg/kg/injection, schedule: Q01DX009 (ip), vehicle: saline with Tween-80",5 of 6
same,survivor count,"T/C endpoint: mean survival time, dose: 3.12 mg/kg/injection, schedule: Q01DX009 (ip), vehicle: saline with Tween-80",4 of 6
same,survivor count,"T/C endpoint: mean survival time, dose: 3.12 mg/kg/injection, schedule: Q01DX009 (ip), vehicle: saline",6 of 6
same,survivor count,"T/C endpoint: mean survival time, dose: 6.25 mg/kg/injection, schedule: Q01DX009 (ip), vehicle: saline with Tween-80",3 of 6
same,T/C,"T/C endpoint: mean survival time, dose: 12.5 mg/kg/injection, schedule: Q01DX001 (ip), vehicle: saline",135 % of control
same,survivor count,"T/C endpoint: mean survival time, dose: 12.5 mg/kg/injection, schedule: Q01DX009 (ip), vehicle: saline with Tween-80",2 of 6
same,survivor count,"T/C endpoint: mean survival time, dose: 12.5 mg/kg/injection, schedule: Q01DX009 (ip), vehicle: saline",6 of 6
same,survivor count,[10],2 of 6
same,survivor count,[4],5 of 6
same,survivor count,"T/C endpoint: mean survival time, dose: 100.0 mg/kg/injection, schedule: Q01DX001 (ip), vehicle: saline",3 of 6
CCCCCCCCCCCCCCC[N+]1(C)CCSCC1,survivor count,[7],1 of 6
Nc1nc2ccc(NCc3ccc(C(=O)NC(CCC(=O)O)C(=O)O)cc3)cc2c(=O)[nH]1 (configuration not stated),T/C,"T/C endpoint: median survival time, dose: 50.0 mg/kg/injection, schedule: Q01DX009 (ip), vehicle: saline with Tween-80",140 and 145 % of control
same,survivor count,"T/C endpoint: median survival time, dose: 200.0 mg/kg/injection, schedule: Q01DX009 (ip), vehicle: saline with Tween-80",0 of 6
CC(C)C(O)(C(=O)O)C(C)O (configuration not stated),survivor count,"T/C endpoint: mean survival time, dose: 200.0 mg/kg/injection, schedule: Q01DX009 (ip), vehicle: water",6 of 6
c1ccc2c([Si](O[Si](c3cccc4ccccc34)C3CCCCC3)C3CCCCC3)cccc2c1,survivor count,[6],6 of 6
CCCCCOC(=O)CCCc1ccc(N(CCCl)CCCl)cc1,T/C,[4],128 % of control
same,T/C,[5],135 % of control
Cc1c(C=[N+]2CCCCC2)c2ccccc2n1C,T/C,"T/C endpoint: mean survival time, dose: 200.0 mg/kg/injection, schedule: Q04DX002 (ip), vehicle: saline with Tween-80",137 % of control
